This note sets out measurements from publication PMC10404699.

Sequences of proteins named here, by UniProt entry; tags and fusion partners are left off. A change or cut given only in a name is not applied to a line headed by its entry.
UniProt Q9Y3Z3: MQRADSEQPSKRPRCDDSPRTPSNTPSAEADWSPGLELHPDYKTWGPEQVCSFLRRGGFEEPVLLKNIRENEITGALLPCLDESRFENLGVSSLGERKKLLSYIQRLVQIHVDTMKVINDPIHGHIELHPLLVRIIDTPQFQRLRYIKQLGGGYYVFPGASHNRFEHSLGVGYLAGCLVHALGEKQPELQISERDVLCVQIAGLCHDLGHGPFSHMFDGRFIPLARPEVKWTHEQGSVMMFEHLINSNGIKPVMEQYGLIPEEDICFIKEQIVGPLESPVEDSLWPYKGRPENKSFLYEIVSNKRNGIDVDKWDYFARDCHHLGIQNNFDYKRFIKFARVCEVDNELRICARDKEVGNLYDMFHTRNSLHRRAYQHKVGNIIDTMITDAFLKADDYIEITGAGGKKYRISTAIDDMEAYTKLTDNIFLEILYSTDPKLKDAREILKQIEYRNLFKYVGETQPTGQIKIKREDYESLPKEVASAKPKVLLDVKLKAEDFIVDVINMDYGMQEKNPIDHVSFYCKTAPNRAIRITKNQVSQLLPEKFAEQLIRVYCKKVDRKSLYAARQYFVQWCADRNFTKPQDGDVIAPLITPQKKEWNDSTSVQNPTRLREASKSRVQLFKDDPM
UniProt Q7Z434: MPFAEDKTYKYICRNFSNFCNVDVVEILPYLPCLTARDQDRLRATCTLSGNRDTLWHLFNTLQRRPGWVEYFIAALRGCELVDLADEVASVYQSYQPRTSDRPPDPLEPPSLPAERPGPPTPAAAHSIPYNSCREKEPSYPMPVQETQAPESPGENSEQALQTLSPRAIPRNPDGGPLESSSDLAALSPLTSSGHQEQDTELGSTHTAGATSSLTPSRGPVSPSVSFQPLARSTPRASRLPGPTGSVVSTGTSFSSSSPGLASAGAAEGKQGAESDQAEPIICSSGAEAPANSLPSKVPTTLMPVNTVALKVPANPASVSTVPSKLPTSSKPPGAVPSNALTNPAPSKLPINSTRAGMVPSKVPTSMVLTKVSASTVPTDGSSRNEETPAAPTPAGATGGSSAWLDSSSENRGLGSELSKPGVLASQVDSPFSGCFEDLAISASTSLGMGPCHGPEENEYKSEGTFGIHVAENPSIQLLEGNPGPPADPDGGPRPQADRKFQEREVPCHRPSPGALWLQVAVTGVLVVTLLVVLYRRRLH

Results are given in words; binding and its absence hold for the method and conditions named. Binding seen in cells or lysates may run through a third protein. Some binding calls cover weakened binding; strength is not graded here. For some assays here: Sequences can lack the tags named with a protein.

Experiment [1] addresses HA-tagged SAMHD1 WT (sterile alpha motif and HD domain-containing protein 1) (human) (UniProt Q9Y3Z3). Nature of the experiment: co-IP; HEK293T cotransfected, lysed 36 h posttransfection; IP with anti-HA antibody (HA-SAMHD1 as bait) and Dynabeads Protein G; nonspecific IgG as negative control; washed with 50 mM Tris (pH7.4), 150 mM NaCl, 1% NP-40, 0.25% sodium deoxycholate; immunoblot. On the technique in general: Immunoblotting shows a protein as a band on a membrane.

For experiment [2], the target named is FLAG-tagged full-length MAVS (mitochondrial antiviral-signaling protein) (human) (UniProt Q7Z434). Nature of the experiment: co-IP; HEK293T cotransfected, lysed 36 h posttransfection; IP with anti-FLAG antibody and Dynabeads Protein G; washed with 50 mM Tris (pH7.4), 150 mM NaCl, 1% NP-40, 0.25% sodium deoxycholate; immunoblot.
The target in experiment [3] is T1, FLAG-tagged full-length IRF7 (IFN regulatory factor 7) (human) (UniProt Q92985).
T1 sequence: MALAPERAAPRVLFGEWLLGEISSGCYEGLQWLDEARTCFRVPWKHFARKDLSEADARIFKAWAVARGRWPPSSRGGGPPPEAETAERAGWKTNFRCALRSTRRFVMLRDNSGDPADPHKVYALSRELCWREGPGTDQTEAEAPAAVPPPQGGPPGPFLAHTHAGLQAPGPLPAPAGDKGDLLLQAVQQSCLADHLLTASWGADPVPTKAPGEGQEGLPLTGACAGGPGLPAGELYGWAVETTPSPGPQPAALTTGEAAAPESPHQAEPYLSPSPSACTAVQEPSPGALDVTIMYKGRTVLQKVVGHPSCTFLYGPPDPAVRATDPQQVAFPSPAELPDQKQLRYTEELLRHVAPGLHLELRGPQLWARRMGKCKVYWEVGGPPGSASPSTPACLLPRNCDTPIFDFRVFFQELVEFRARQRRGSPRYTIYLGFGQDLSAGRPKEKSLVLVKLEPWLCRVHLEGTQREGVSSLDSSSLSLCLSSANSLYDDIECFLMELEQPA
Described as above.

In experiment [4] the target is endogenous SAMHD1 of THP-1 cells (human (endogenous in THP-1)) (UniProt Q9Y3Z3). Nature of the experiment: co-IP; endogenous proteins; THP-1 control cells mock-infected or infected with SeV (MOI of 10), harvested at 6 hpi; IP with SAMHD1 antibody or IgG control; immunoblot.

For the substance “FLAG-tagged full-length MAVS (mitochondrial antiviral-signaling protein) (from UniProt Q7Z434 1-540)”, the binding result in experiment [1] is given as “binds”.

For “HA-tagged SAMHD1 HD/RN mutant (H206R and D207N) (from UniProt Q9Y3Z3 1-626)”, the binding result in experiment [2] is “binds”.

For “HA-tagged SAMHD1 WT (sterile alpha motif and HD domain-containing protein 1) (from UniProt Q9Y3Z3 1-626)”, the binding entry in experiment [3] and in experiment [2] was “binds” in each case.

In the case of “endogenous MAVS of THP-1 cells (from UniProt Q7Z434 1-540)”, the binding entry in experiment [4] is reported as “binds”.
